The other results are listed elsewhere or left out. These are further read-outs of the screen, such as a control signal, another cell line or another target. No call is given for them. Compounds called inactive in the main read-out are mostly missing here. Words in brackets tell the shape of the fitted curve; partial curves, single points and poor fits give uncertain potencies.
Assay: qHTS Assay for Lipid Storage Modulators in Drosophila S3 Cells;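 on cell number change: cells counted by Cell Tracker Red CMTPX staining in the red channel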
Details: BODIPY lipid droplet fluorescence, 18-24 h; for cell number change: measured here: cell count max response, cells fed with added oleic acid
How it was run: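 Drosophila S3 cells loaded with oleic acid (400 uM, as added) and compounds at several concentrations; lipid droplets imaged by 488-nm laser-scanning cytometry, 500–530 nm intensity and object ratio to cell channel. Percent activity normalized to 20 uM Triacsin C.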

[1] = measured here: cell number channel AC50, cells fed with added oleic acid
[2] = measured here: lipid fluorescence (Fed channel) AC50, cells fed with added oleic acid

SMILES | cell number change | AC50 [1] | AC50 [2]
CC(=O)c1ccc(NC(=O)C(Cc2ccccc2)n2cccc2)cc1 (centres undefined) | -12.9% | – | –
CCN(CC(=O)Nc1c(F)cccc1F)C(=O)c1ccc(S(=O)(=O)N2CCC(C)CC2)cc1 | -6.33% | – | –
COC(=O)[C@@]1(Cc2ccc(OC)cc2)[C@H]2c3cc(C(=O)N4CCCC4)n(Cc4ccc(OC)c(OC)c4)c3C[C@H]2CN1C(=O)c1ccccc1 | -30.1% | 23.1 µM [falling, single point] | 32.6 µM [falling, partial curve, poor fit]
CCCCOc1ccc(NC(=O)CSc2nnnn2C)cc1 | – | 0.116 µM [falling, full curve, poor fit] | 2.91 µM [rising, full curve]
CC1(C)C(C=C(Cl)Cl)C1C(=O)N(Cc1cccc(Cl)c1)C1CCS(=O)(=O)C1 (centres undefined) | -16.7% | 3.66 µM [rising, single point] | 7.31 µM [rising, partial curve, poor fit]
N#Cc1cc(C(=O)c2ccccc2OCC(=O)Nc2ccccc2Cl)cn(C2CCCCC2)c1=O | 15.9% | – | 0.231 µM [rising, partial curve, poor fit]
Fc1ccccc1N1CCN(Cc2cccnc2)CC1 | 21% | – | 18.4 µM [rising, single point]
CCc1nnc(-n2nc(C)cc2-c2ccccc2)n1N | – | – | 0.259 µM [falling, full curve]
COc1ccc(C(=S)N2CCOCC2)cc1OC(=O)c1ccc(C)cc1 | 15.4% | 0.259 µM [rising, partial curve, poor fit] | 5.17 µM [falling, single point]
N#Cc1ccc(Cl)cc1NC(=O)COC(=O)c1ccc2c(c1)OCCO2 | – | – | 2.59 µM [rising, partial curve]
O=C1c2cccc(OCC(=O)N3CCCc4ccccc43)c2CCN1Cc1ccc(Br)cc1 | -2.01% | – | 32.6 µM [falling, single point]
CCC[n+]1c(C)sc2c(OC)ccc(OC)c21 | 11.3% | – | 3.26 µM [rising, single point]
CCOC(=O)N1CCN(C(=O)CNC(=O)c2ccc(Br)cc2)CC1 | 41.9% | 29.1 µM [rising, single point] | –
C=CS(=O)(=O)c1ccc(Oc2ccc(S(=O)(=O)C=C)cc2)cc1 | -86.7% | 14.6 µM [falling, partial curve] | 5.8 µM [falling, full curve]
Oc1ccccc1C=NC1CCCCC1N=Cc1ccccc1O (centres undefined) | -0.149% | – | 0.731 µM [rising, single point]
N#Cc1c(-c2cccnc2)c2c([nH]c1=S)CCCC2 | 1.03% | – | 0.651 µM [rising, partial curve]
CCOC(=O)N1CCN(C(=O)C2CCN(CC3CCCCC3)CC2)CC1 | 11.9% | – | 0.164 µM [falling, full curve]
Cc1cc(C)nc(/N=C(\N)Nc2cccc(OCc3ccccc3)c2)n1 | 9.07% | – | –
CC1(C)CC(CCNC(=O)c2ccco2)CC(C)(C)N1 | -32.1% | 32.6 µM [falling, single point] | 25.9 µM [falling, partial curve]
CC(=O)Nc1ccc(N(C)S(C)(=O)=O)cc1 | -23.5% | 2.31 µM [falling, partial curve, poor fit] | 8.2 µM [falling, partial curve, poor fit]
Cc1c(C(=O)OC2CCCCC2)[nH]c2c1C(=O)CC(C)(C)C2 | 1.09% | – | 3.66 µM [rising, single point]
CCc1c(C)sc(NC(=O)CSc2nc3c(c(C(F)(F)F)n2)CCc2ccccc2-3)c1C#N | – | 0.092 µM [rising, full curve, poor fit] | 0.082 µM [rising, full curve, poor fit]
CC(=O)Nc1ccc(NS(=O)(=O)c2cc(-c3cnc(C4CC4)o3)ccc2C)cc1 | -11.6% | – | –
COc1ccccc1CNC(=O)c1ccc(Br)o1 | 4.95% | – | 7.31 µM [falling, single point]
COc1ccccc1NCC(=O)N/N=C/c1sccc1C | -1.59% | – | –
S=C(NCc1ccco1)NCc1ccccc1Cl | -4.53% | 7.31 µM [rising, partial curve] | 2.06 µM [rising, partial curve, poor fit]
CCCCCOC(=O)C1C(c2ccccc2)C(C(=O)O)C1c1ccccc1 (centres undefined) | 33% | 29.1 µM [rising, single point] | 0.326 µM [rising, full curve, poor fit]
Cc1cc(C(=O)N2CCCC(C(=O)c3cc(F)ccc3F)C2)c(C)o1 (centres undefined) | -11.6% | – | 0.291 µM [falling, full curve, poor fit]
CC(C)N(C)C1CCN(S(=O)(=O)c2ccc(-c3ccc(=O)[nH]n3)s2)CC1 | -2.45% | – | 7.31 µM [falling, full curve, poor fit]

In the list so far, 2 have an aryl thioether with sulfur outside any ring:
SMILES | cell number change | AC50 [1] | AC50 [2]
CCCCOc1ccc(NC(=O)CSc2nnnn2C)cc1 | – | 0.116 µM [falling, full curve, poor fit] | 2.91 µM [rising, full curve]
CCc1c(C)sc(NC(=O)CSc2nc3c(c(C(F)(F)F)n2)CCc2ccccc2-3)c1C#N | – | 0.092 µM [rising, full curve, poor fit] | 0.082 µM [rising, full curve, poor fit]

From PubChem BioAssay AID2685 (National Center for Advancing Translational Sciences (NCATS), 2010)
